Source: patent US20250154198A1, “PEPTIDE INHIBITORS OF INTERLEUKIN-23 RECEPTOR” (Zealand Pharma A/S, priority 2021, published 2025)
Some of these results come from one statement about several compounds together. *1 amine or outer side, *2 acyl side, *3 side chain or, on linkers, in order; H or OH if unused. Where a SMILES comes first, the peptide text is derived from it. Bridges are numbered along the chain shown (N, C = ends). [ ]: non-standard residue; d: D form. Phe(3,4-Me2) = Cc1ccc(C[C@H](N)C(=O)O)cc1C; 2Nal = N[C@@H](Cc1ccc2ccccc2c1)C(=O)O; AEF = NCCOc1ccc(C[C@H](N)C(=O)O)cc1; X1 = O=C(Cc1ccc(CN[*:1])cc1)[*:2]; 3Pal = N[C@@H](Cc1cccnc1)C(=O)O; αMeL = CC(C)C[C@](C)(N)C(=O)O; CH2COCH2 = O=C(C[*:1])C[*:2]; αMeV = CC(C)[C@](C)(N)C(=O)O; 3Amb = NCc1cccc(C(=O)O)c1; Dab = NCC[C@H](N)C(=O)O

Amino acid sequences for entries named in this document (tags omitted). Residues count along the entry.
UniProt Q5VWK5, 24-629 limits assumed: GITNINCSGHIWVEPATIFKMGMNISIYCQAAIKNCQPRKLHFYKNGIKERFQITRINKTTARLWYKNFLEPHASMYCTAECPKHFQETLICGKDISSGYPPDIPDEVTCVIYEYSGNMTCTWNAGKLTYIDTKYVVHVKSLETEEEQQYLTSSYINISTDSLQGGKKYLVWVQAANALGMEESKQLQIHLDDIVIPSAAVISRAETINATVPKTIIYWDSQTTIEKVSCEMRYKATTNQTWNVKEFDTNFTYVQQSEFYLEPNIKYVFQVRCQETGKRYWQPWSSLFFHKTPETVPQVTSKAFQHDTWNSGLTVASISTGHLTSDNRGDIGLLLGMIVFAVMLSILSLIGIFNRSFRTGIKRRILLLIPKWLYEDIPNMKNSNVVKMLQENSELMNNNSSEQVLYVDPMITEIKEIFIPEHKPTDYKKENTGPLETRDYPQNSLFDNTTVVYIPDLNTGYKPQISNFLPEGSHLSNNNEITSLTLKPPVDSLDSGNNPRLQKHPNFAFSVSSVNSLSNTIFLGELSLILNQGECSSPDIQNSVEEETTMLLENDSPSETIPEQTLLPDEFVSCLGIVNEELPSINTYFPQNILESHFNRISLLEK

The compounds below were run against IL-23 mediated phospho-STAT3 formation in DB cells (Homo sapiens, UniProt Q5VWK5) (assay: Functional inhibition of IL-23 mediated STAT3 signalling (phospho-STAT3 Tyr705 MSD) in DB cells). Conditions: X13 is 3-(3-Pyridyl)-Ala as C-terminal residue; evidenced by a low IC50 value, Table 3-1.
Assay type: cell-based
From the text: Functional Inhibition of IL-23 Mediated STAT3 Signalling by Compounds
Upon binding of IL-23, the IL-23R forms a heterodimer signalling complex together with IL-12R β1, which through the JAK2/STAT3 pathway promotes phosphorylation of STAT3 to form phospho-STAT3.
The assay was used to quantify the functional antagonism of a compound and to rank order the inhibitor compounds according to their potency. For compounds tested in this assay, the response was normalized relative to control values to calculate the IC50 and maximal inhibitory response from a concentration response curve of the compound in presence of a fixed concentration of human IL-23.
The assay procedure was as follows. […] Following preincubation of the DB cells with inhibitor for 15 min in a cell incubator (37° C., 5% CO2), 20 μL of the prepared 3× the EC80 of hIL-23 solution was added to each well and incubated for 90 min in a cell incubator (37° C., 5% CO2). For some wells buffer only or IL-23 only corresponding to the EC80 was added to obtain readouts needed for normalization. To terminate the assay, the plate was spun at 1000 G for 5 min to pellet cells, the supernatant removed using an 8-channel manual pipette, and then added 50 μL/well Complete Lysis Buffer from the MSD STAT3 kit (Cat #K150SVD, Mesoscale) to the cell pellet. To completely lyse cells to release phospho-STAT3 for detection, the plate was shaken for 10 min at room temperature (500 rpm) sealed with aluminum foil and placed at −80° C. for a minimum of 15 min. Detection of the phospho-STAT3 level in the cell lysate from the individual wells was determined using the MSD STAT3 kit (Cat #K150SVD, Mesoscale) and read on a Meso QuickPlex SQ 120 plate reader (Mesoscale).
For data analysis raw data counts from the Meso QuickPlex SQ 120 plate reader were normalized relative to the response by the EC80 of hIL-23 alone (no compound added) and the buffer level. Compound potency (IC50) and maximal inhibitory response (% inhibition) were estimated by computer-aided curve fitting using a 4-parameter logistic (4PL) non-linear model.

Potency for hIL23 pSTAT3 (in words), particularly strong:
CC(C)C[C@]1(C)NC(=O)[C@H](Cc2ccc3ccccc3c2)NC(=O)[C@H](Cc2ccc(OCCN)cc2)NC(=O)[C@@H]2CCCNC(=O)CC[C@H](NC(=O)[C@H](CO)NC(=O)Cc3ccc(cc3)CNC(=O)CC[C@@H](C(=O)N[C@@H](CCN)C(=O)N[C@@H](Cc3cccnc3)C(N)=O)NC1=O)C(=O)N[C@@H](Cc1c[nH]c3ccccc13)C(=O)N[C@@H](CCC(N)=O)C(=O)N2 [Compound 124, [4-Aminomethyl-phenylacetyl](1c)*SE(2c)WQ[Orn](2c)[Y(2-aminoethoxy)][2-Nal][2-Me-Leu]E(1c)[Dab][3-(3-Pyridyl)-Ala]-[NH2]]
CC(C)C[C@]1(C)NC(=O)[C@H](Cc2ccc3ccccc3c2)NC(=O)[C@H](Cc2ccc(OCCN)cc2)NC(=O)[C@@H]2CSCC(=O)CSC[C@H](NC(=O)[C@H](CO)NC(=O)Cc3ccc(cc3)CNC(=O)CC[C@@H](C(=O)N[C@@H](CCCNC(=N)N)C(=O)N[C@@H](Cc3cccnc3)C(N)=O)NC1=O)C(=O)N[C@@H](Cc1c[nH]c3ccccc13)C(=O)N[C@@H](CCC(N)=O)C(=O)N2 [Compound 147, [4-Aminomethyl-phenylacetyl](1c)*SC(2a)WQC(2a)[Y(2-aminoethoxy)][2-Nal][2-Me-Leu]E(1c)R[3-(3-Pyridyl)-Ala]-[NH2]] ([X1]SCWQC[AEF][2Nal][αMeL]ER[3Pal]-NH2; linker 3-6 via CH2COCH2; lactam N-10)
CC(C)C[C@]1(C)NC(=O)[C@H](Cc2ccc3ccccc3c2)NC(=O)[C@H](Cc2ccc(OCCN)cc2)NC(=O)[C@@H]2CSCC(=O)CSC[C@H](NC(=O)[C@H](CO)NC(=O)c3cccc(c3)CNC(=O)CC[C@@H](C(=O)N[C@@H](CCN)C(=O)N[C@@H](Cc3cccnc3)C(N)=O)NC1=O)C(=O)N[C@@H](Cc1c[nH]c3ccccc13)C(=O)N[C@@H](CCC(N)=O)C(=O)N2 [Compound 148, [(3-Aminomethyl)benzoyl](1c)*SC(2a)WQC(2a)[Y(2-aminoethoxy)][2-Nal][2-Me-Leu]E(1c)[Dab][3-(3-Pyridyl)-Ala]-[NH2]] ([3Amb]SCWQC[AEF][2Nal][αMeL]E[Dab][3Pal]-NH2; linker 3-6 via CH2COCH2; lactam N-10)
CC(=O)N[C@H]1CCCCNC(=O)CC[C@@H](C(=O)N[C@@H](CCN)C(=O)N[C@@H](Cc2cccnc2)C(N)=O)NC(=O)[C@](C)(CC(C)C)NC(=O)[C@H](Cc2ccc3ccccc3c2)NC(=O)[C@H](Cc2ccc(OCCN)cc2)NC(=O)[C@@H]2CSCC(=O)CSC[C@H](NC(=O)[C@H]([C@@H](C)O)NC1=O)C(=O)N[C@@H](Cc1c[nH]c3ccccc13)C(=O)N[C@@H](CCC(N)=O)C(=O)N2 [Compound 155, [Ac]-K(1c)TC(2a)WQC(2a)[Y(2-aminoethoxy)][2-Nal][2-Me-Leu]E(1c)[Dab][3-(3-Pyridyl)-Ala]-[NH2]] (Ac-KTCWQC[AEF][2Nal][αMeL]E[Dab][3Pal]-NH2; lactam 1-10; linker 3-6 via CH2COCH2)
CC[C@H](C)[C@@H]1NC(=O)c2cccc(c2)CNC(=O)CC[C@@H](C(=O)N[C@@H](CCN)C(=O)N[C@@H](Cc2cccnc2)C(N)=O)NC(=O)[C@](C)(C(C)C)NC(=O)[C@H](Cc2ccc3ccccc3c2)NC(=O)[C@H](Cc2ccc(OCCN)cc2)NC(=O)[C@@H]2CCNC(=O)CC[C@H](NC1=O)C(=O)N[C@@H](Cc1c[nH]c3ccccc13)C(=O)N[C@@H](CCC(N)=O)C(=O)N2 [Compound 156, [(3-Aminomethyl)benzoyl](1c)*IE(2c)WQ[Dab](2c)[Y(2-aminoethoxy)][2-Nal][2-Me-Val]E(1c)[Dab][3-(3-Pyridyl)-Ala]-[NH2]] ([3Amb]IEWQ[Dab][AEF][2Nal][αMeV]E[Dab][3Pal]-NH2; lactam 3-6, N-10)
CC[C@H](C)[C@@H]1NC(=O)Cc2ccc(cc2)CNC(=O)CC[C@@H](C(=O)N[C@@H](CCN)C(=O)N[C@@H](Cc2cccnc2)C(N)=O)NC(=O)[C@](C)(C(C)C)NC(=O)[C@H](Cc2ccc3ccccc3c2)NC(=O)[C@H](Cc2ccc(OCCN)cc2)NC(=O)[C@@H]2CCNC(=O)CC[C@H](NC1=O)C(=O)N[C@@H](Cc1c[nH]c3ccccc13)C(=O)N[C@@H](CCC(N)=O)C(=O)N2 [Compound 157, [4-Aminomethyl-phenylacetyl](1c)*IE(2c)WQ[Dab](2c)[Y(2-aminoethoxy)][2-Nal][2-Me-Val]E(1c)[Dab][3-(3-Pyridyl)-Ala]-[NH2]] ([X1]IEWQ[Dab][AEF][2Nal][αMeV]E[Dab][3Pal]-NH2; lactam 3-6, N-10)
CC[C@H](C)[C@@H]1NC(=O)Cc2ccc(cc2)CNC(=O)CC[C@@H](C(=O)NCC(=O)N[C@@H](Cc2cccnc2)C(N)=O)NC(=O)[C@](C)(C(C)C)NC(=O)[C@H](Cc2ccc(C)c(C)c2)NC(=O)[C@H](Cc2ccc(OCCN)cc2)NC(=O)[C@@H]2CCNC(=O)CC[C@H](NC1=O)C(=O)N[C@@H](Cc1c[nH]c3ccccc13)C(=O)N[C@@H](CCC(N)=O)C(=O)N2 [Compound 158, [4-Aminomethyl-phenylacetyl](1c)*IE(2c)WQ[Dab](2c)[Y(2-aminoethoxy)][F(3,4-Me)][2-Me-Val]E(1c)G[3-(3-Pyridyl)-Ala]-[NH2]] ([X1]IEWQ[Dab][AEF][Phe(3,4-Me2)][αMeV]EG[3Pal]-NH2; lactam 3-6, N-10)
